Here are results for three compounds from PubChem BioAssay AID720537 (National Center for Advancing Translational Sciences (NCATS), 2013).

In all, about 1,600 compounds went through this assay and about 55 (3%) were called active. About 10% were inconclusive and are not listed. Calls come from the whole dose curve; as a rule, active = well fitted inhibition curve with a large enough effect; inconclusive = small, poorly fitted or top-dose-only effect; inactive = no such curve, though single readings can be large or run the other way. The entries are a selection whose mix differs from that of the whole data set.

A short description of this assay: qHTS for Inhibitors of TGF-b: Hit Validation in HepG2 Cells using COP promoter.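 Note: 0% = TGF-beta stimulated DMSO wells and -100% = unstimulated cell wells; nearly all actives have a fitted effect of over 70% in size.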 Conditions: HepG2 COP-GFP TGF-b reporter, GFP fluorescence, 18 h, cells stimulated by added recombinant TGF-beta; at 46.1 µM (top of the series). The text has this: TGF-b is a main component in the TGF-b signaling pathway which plays diverse roles in cellular and development pathways. TGF-b is the mediated by the transcription factors Smads. Although the Smad-dependent pathway is the primary canonical TGF-b signaling node, TGF-b1 can also activate alternative signaling pathways, including those involving MAPK (ERK, JNK and p38). This interaction may mediate or enhance Smad-dependent responses, or can exert Smad-independent effects. The complexity of this signaling cascade allows the TGF-b superfamily to perform unique, overlapping or redundant functions. We believe that targeting the TGF-beta pathway at the Smad-transcription factor level may eliminate the consequences of disrupting the entire pathway and offer specificity without affecting other signaling pathways. Smad3 is the primary transducer of TGF-b's signals and Smad3 regulates many functions attributed to TGF-b signaling. We hypothesize that Smad3 inhibitors will selectively eliminate Smad3-specific TGF-beta signals without undesired off-target effects. We aim to identify Smad3-small molecule antagonists using a quantitative high throughput screening (qHTS) approach. […]
Suspensions of trypsinized HEPG2 COP-GFP cells were dispensed into white, tissue culture-treated, solid 1536-well plates at 5uL/well (1000 cells/well final concentration) in DMEM medium supplemented with 1% FBS. […] The plates were measured on an Acumen eX3 Explorer plate reader for GFP fluorescence (ex488/em500-530). GFP values were calculated by determining the mean GFP fluorescence of individual cells, and compiling these values for each well to determine a total well GFP signal. The %Activity was determined from the corrected fluorescence values. […] Concentration-response curves were fitted to the signals arising from the resulting fluorescence. The concentration-effect curves were then classified based on curve quality (r2), response magnitude and degree of measured activity, and compounds were subsequently categorized based on their curve class.
On to `O=Cc1cn(Cc2ccc(F)cc2Cl)c2ccccc12`, for which the activity, negative = inhibition was inactive: -17.1%.

As to `CCC(C)(O)C(=O)OC1C(=O)OC2CC3C(C)=CC(=O)C(O)C3(C)C3C4(O)OCC23C1C(C)C4O` (stereo not drawn), the activity, negative = inhibition was inactive: 0.785%.

Regarding `COC(=O)C1=C(c2cc3ccccc3o2)C[C@@H]2CC[C@H]1N2C(=O)NC1CCCCC1`, the activity, negative = inhibition was inactive: 17.2%.
